Results are given in words; binding and its absence hold for the method and conditions named. In cells and extracts the contact can be indirect. Some entries that bind do so weakly or less than the wild type.
Target: Polyoma enhancer activator 3 (PEA3) (human (endogenous in WI-38)) (UniProt P43268)
Assay: co-IP; WI-38 cells exposed to hypoxia (1% O2) for 30 min, lysed in IP lysis buffer; supernatant immunoprecipitated with antibody against PEA3 or c-Jun with protein A/G beads at 4 °C overnight; immunoblot for PEA3 or c-Jun

Protein sequences, listed by entry. Tags and fused reporters are not part of them.
UniProt P43268: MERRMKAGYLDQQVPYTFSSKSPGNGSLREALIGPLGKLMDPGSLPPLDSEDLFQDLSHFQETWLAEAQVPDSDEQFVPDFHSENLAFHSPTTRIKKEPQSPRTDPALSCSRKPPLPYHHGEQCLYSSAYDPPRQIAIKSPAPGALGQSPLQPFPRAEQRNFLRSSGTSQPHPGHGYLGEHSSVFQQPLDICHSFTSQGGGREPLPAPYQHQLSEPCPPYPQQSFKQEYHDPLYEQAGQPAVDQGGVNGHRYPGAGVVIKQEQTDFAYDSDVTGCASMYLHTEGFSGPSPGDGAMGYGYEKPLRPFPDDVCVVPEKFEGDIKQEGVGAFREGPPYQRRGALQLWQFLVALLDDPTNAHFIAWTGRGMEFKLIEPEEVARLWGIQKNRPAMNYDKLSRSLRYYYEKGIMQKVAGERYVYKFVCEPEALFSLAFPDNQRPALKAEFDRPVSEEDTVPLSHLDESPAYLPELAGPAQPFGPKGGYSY
UniProt P05412: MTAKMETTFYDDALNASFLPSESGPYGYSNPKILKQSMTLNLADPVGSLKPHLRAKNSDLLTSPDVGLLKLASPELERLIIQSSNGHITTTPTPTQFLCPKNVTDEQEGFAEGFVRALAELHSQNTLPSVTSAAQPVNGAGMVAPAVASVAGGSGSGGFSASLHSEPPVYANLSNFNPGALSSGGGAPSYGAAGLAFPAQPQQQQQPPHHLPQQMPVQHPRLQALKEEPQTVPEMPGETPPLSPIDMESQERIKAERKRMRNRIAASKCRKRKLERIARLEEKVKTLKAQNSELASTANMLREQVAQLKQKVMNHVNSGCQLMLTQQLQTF

## c-Jun (from UniProt P05412 1-331)
  binding: binds
